In PubChem BioAssay AID2662 (National Center for Advancing Translational Sciences (NCATS), 2010):
The campaign covered roughly 290,000 compounds. About 110 (0.038%) were called active. The shares of active, inactive and inconclusive entries below differ from those in the screen. Calls come from the whole dose curve; as a rule, active = well fitted inhibition curve with a large enough effect in the polarisation, with a control signal flat (not every such curve was filed as active); inconclusive = small, poorly fitted or top-dose-only effect, or effect the other way, or a change in a side signal; inactive = no such curve, though single readings can be large or run the other way; the % refers to the polarisation. A potency beside an inconclusive call is a rough fit, not a confirmed value. “Side channel” marks fits to a control or component signal instead of the main read-out.

By UniProt entry, the sequences of proteins in these tests, tags left out.
UniProt Q03164, whole entry, looked up: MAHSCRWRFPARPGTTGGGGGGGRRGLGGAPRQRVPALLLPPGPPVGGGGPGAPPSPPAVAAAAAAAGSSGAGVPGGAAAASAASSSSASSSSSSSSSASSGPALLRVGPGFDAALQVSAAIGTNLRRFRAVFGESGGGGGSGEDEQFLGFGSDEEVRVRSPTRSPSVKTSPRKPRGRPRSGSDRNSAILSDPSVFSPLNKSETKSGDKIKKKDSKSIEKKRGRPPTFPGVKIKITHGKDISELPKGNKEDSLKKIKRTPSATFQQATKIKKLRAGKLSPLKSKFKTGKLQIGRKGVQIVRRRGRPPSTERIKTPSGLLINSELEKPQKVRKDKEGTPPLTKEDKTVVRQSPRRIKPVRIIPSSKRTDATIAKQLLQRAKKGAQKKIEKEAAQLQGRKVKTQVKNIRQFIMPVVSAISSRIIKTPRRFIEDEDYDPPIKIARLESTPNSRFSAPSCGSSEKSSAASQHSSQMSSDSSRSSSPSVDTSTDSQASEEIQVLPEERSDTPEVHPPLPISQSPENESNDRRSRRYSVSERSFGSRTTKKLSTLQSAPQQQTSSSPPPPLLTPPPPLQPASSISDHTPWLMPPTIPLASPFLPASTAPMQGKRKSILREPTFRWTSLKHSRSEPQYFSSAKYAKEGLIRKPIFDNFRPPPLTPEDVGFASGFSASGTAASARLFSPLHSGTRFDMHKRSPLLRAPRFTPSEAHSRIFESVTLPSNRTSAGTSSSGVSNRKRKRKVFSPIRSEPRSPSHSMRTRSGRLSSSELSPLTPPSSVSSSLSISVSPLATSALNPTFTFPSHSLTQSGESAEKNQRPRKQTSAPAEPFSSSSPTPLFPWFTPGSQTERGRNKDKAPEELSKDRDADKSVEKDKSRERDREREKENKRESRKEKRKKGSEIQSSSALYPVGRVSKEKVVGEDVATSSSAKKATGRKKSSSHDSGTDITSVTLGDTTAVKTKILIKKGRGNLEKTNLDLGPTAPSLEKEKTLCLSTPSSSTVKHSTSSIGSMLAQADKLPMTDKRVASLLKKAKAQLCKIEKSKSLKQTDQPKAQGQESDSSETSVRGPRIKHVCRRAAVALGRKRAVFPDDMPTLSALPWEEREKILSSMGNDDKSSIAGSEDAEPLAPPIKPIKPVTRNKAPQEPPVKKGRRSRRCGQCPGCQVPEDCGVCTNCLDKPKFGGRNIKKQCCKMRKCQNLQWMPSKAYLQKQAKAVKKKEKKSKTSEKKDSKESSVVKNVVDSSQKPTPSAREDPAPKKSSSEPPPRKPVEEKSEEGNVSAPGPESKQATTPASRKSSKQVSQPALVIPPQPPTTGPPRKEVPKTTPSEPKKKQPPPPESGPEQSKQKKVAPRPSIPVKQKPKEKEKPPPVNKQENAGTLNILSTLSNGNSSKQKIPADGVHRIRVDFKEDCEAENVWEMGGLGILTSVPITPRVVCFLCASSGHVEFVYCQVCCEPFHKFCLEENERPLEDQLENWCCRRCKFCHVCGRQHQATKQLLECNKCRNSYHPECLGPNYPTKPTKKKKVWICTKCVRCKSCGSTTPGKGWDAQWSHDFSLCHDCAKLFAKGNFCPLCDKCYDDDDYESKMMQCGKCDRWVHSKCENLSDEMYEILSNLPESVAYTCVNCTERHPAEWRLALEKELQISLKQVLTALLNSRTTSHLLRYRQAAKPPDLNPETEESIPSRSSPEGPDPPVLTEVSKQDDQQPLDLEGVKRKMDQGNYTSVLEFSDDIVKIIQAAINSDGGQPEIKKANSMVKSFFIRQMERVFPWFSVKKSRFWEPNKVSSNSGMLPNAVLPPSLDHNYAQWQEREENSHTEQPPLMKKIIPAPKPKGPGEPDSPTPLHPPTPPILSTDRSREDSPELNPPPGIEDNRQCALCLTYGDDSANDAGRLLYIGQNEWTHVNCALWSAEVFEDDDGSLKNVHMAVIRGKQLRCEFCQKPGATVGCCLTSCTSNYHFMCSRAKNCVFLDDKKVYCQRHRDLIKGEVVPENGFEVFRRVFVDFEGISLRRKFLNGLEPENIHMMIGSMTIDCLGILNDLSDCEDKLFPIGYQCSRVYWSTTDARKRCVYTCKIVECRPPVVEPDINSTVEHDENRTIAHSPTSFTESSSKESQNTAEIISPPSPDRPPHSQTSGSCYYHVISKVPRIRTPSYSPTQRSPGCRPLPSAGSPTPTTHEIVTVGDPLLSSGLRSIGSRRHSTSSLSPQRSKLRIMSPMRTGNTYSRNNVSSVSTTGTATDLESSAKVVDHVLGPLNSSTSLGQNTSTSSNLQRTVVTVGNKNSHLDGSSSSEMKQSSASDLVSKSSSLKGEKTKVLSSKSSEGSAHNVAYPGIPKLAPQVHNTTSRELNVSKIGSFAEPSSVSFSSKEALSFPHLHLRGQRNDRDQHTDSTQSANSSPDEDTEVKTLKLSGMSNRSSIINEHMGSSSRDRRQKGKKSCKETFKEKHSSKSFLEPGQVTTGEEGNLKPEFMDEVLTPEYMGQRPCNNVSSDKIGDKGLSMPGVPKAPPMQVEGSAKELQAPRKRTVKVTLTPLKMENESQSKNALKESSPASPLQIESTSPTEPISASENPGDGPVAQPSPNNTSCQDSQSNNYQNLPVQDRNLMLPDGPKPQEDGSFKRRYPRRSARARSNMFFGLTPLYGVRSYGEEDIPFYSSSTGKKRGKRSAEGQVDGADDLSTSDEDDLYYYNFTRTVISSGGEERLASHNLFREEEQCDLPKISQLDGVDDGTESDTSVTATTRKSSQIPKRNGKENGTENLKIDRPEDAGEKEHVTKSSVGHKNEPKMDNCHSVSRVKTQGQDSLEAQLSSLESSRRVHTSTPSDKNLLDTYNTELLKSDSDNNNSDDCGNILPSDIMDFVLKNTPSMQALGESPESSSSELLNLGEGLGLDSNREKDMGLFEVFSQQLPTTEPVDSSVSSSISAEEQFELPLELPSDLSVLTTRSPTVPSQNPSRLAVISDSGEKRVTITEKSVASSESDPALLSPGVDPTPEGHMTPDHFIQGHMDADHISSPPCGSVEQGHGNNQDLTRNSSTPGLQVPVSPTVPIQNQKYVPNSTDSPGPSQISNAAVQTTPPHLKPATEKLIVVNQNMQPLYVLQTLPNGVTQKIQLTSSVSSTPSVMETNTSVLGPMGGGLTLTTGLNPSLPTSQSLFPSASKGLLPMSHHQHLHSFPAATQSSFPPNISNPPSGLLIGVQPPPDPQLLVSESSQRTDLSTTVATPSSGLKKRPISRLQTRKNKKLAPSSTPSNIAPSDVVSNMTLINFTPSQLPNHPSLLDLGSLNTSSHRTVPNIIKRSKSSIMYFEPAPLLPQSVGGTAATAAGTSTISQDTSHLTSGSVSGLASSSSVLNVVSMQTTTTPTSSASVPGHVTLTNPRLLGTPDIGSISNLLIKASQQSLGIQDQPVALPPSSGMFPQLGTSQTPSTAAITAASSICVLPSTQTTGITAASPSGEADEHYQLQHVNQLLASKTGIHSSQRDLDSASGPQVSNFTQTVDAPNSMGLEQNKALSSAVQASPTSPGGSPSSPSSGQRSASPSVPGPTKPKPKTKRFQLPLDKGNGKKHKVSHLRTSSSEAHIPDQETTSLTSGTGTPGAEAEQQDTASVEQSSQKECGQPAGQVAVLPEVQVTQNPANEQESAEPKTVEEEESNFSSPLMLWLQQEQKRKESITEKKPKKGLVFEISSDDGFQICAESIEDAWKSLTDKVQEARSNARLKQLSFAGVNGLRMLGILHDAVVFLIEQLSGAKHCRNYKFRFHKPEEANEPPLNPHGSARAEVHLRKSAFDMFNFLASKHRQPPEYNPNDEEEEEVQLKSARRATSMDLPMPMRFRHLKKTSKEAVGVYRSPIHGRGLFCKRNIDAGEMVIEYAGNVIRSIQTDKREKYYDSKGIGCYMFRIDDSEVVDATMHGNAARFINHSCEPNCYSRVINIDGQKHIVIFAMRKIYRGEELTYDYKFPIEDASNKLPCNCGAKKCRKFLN

The compounds below were run against Histone-lysine N-methyltransferase 2A (Homo sapiens) (UniProt Q03164) (assay: qHTS Fluorescence Polarization Assay for Inhibitors of MLL CXXC domain - DNA interaction). Conditions: MLL-CXXC / FITC-HOXA9 DNA fluorescence polarization; series mostly up to 115 µM.
Procedure, shortened: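 Steps: dispense CXXC domain solution (7 uM) → pin compounds or unlabeled HOX-A9 DNA control → 5 min ambient → add FLSN-HOX-A9 solution (50 nM) → spin → 30 min ambient → fluorescence polarization. Tris pH 7.5/NaCl/DTT/BSA buffer.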
Potency is the fitted concentration of half-maximal effect.

Row | Structure (SMILES) | Potency
1 | COc1cc(/C=N/NC(=O)c2cc3ccccc3cc2O)ccc1OCCN1CCCCC1 | inconclusive: 63.1 µM [quencher, side channel, single point]
2 | COc1cc(NS(=O)(=O)c2ccc(NC(=S)NC(=O)CC(C)C)cc2)nc(OC)n1 | inactive
3 | CC(C)Cn1c(-c2cccs2)nc2ccccc21 | inactive
4 | CCOc1cc(/C=C2/C(=N)N3N=C(C)SC3=NC2=O)ccc1OS(=O)(=O)c1ccc(C)cc1 | inconclusive: 7.94 µM [quencher, side channel, full curve, poor fit]
5 | Cc1ccc(COc2ccc(/C=N/O)cc2)cc1 | inactive
6 | CC1(C)OC(=O)N(NCc2ccccc2)C1(C)O (configuration not stated) | inconclusive: 35.5 µM [fluorescent, side channel, partial curve]
7 | C=CCNC(=O)c1ccc([N+](=O)[O-])c(Cl)c1 | inactive
8 | C=CCOC(=O)C1=C[C@H](c2cn(C(C)=O)c3ccccc23)[C@@H](CCCO)[C@H](OCC)O1 | inconclusive: 89.1 µM [inhibitor, single point]
9 | Cc1ccc(NC(=O)CN2C(=O)S/C(=C/c3ccc(-c4cc(C(=O)O)ccc4C)o3)C2=O)cc1C | inconclusive: 14.1 µM [fluorescent, side channel, full curve]
10 | CC(=O)N(Cc1cccnc1)c1cccc(-c2nc3ccccc3s2)c1 | inactive
11 | CCOc1cc(/C=C2\C(=O)NN(c3ccccc3)C2=O)cc([N+](=O)[O-])c1O | inconclusive: 89.1 µM [inhibitor, single point]
12 | Cc1ccc(-c2nnn3c2nc(NCCc2ccc(S(N)(=O)=O)cc2)c2ccccc23)cc1 | inconclusive: 2.82 µM [fluorescent, side channel, full curve]
13 | Cc1ccc(N2C(=O)C3C(C(=O)c4ccccc4)=NN(c4ccccc4)C3C2=O)cc1 (configuration not stated) | inconclusive: 35.5 µM [fluorescent, side channel, partial curve]
14 | COc1ccc(N(CCC#N)C(=O)/C(C#N)=C\c2cccs2)cc1 | inactive
15 | COc1cc(CN2CCCC(N3CCc4ccccc4C3)C2)c(Cl)cc1O (configuration not stated) | inconclusive: 70.8 µM [quencher, side channel, single point]
16 | CCOC(=O)c1cc(C)nc(S(C)(=O)=O)c1C#N | inconclusive: 31.6 µM [quencher, side channel, partial curve]
17 | COc1cccc(-c2nnc(N)o2)c1 | inconclusive: 100 µM [inhibitor, partial curve, poor fit]
18 | CCNC(=O)Oc1ccc[nH]c1=O | inconclusive: 63.1 µM [fluorescent, side channel, single point]
19 | N#Cc1c(-c2cccs2)nc(SCc2ccc(Cl)cc2)[nH]c1=O | inactive
20 | Cc1nnsc1C(=O)Nc1ccc(S(=O)(=O)N2CCC(C)CC2)cc1 | inconclusive: 8.91 µM [quencher, side channel, single point]
21 | Cc1c(OCC(=O)NCc2cccnc2)ccc2c3c(c(=O)oc12)CCC3 | inconclusive: 7.08 µM [fluorescent, side channel, full curve]

Row | Structure (SMILES) | Potency
22 | NC(=O)C1CCN(C(=O)CC2C(=O)NCCN2Cc2cccc(Oc3ccccc3)c2)CC1 (configuration not stated) | inconclusive: 35.5 µM [fluorescent, side channel, partial curve]
23 | COc1ccc(C2=NOC(C(=O)Nc3cc(C)on3)C2)cc1 (configuration not stated) | inconclusive: 12.6 µM [fluorescent, side channel, single point]
24 | CC(C)[N+](C)(C)CC#CC(O)(c1ccccc1)c1ccccc1 | inactive
25 | CCCNC(=O)CCc1cc(C(C)(C)C)c(O)c(C(C)(C)C)c1 | inconclusive: 14.1 µM [inhibitor, single point]
26 | O=C(Nc1cccc(C(F)(F)F)c1)c1cccnc1NCCc1ccccc1 | inactive
27 | CCN(CC)CCCN(C(=O)c1ccco1)c1nc(-c2ccc(Cl)cc2)cs1 | inconclusive: 39.8 µM [quencher, side channel, partial curve]
28 | COc1ccc(NC(=O)Nc2cc(C)cc(C)c2)cn1 | inconclusive: 39.8 µM [inhibitor, single point]
29 | Clc1ccc(CSc2nccn2Cc2ccccc2)cc1 | inactive
30 | CCCCNC(=O)COC(=O)c1ccccc1F | inactive
31 | CCn1nc(C)c(CN2CCCC(CO)(Cc3ccccc3)C2)c1C (configuration not stated) | inconclusive: 8.91 µM [inhibitor, partial curve]
32 | CCNC(=O)CSc1nc(-c2ccc(F)cc2)cs1 | inactive
33 | CCN(CC(=O)NCc1cccs1)C(=O)c1cc(S(=O)(=O)N2CCOCC2)ccc1C | inactive
34 | O=S(=O)(Nc1nccs1)c1cnc(Cl)c(Br)c1 | inconclusive: 14.1 µM [fluorescent, side channel, full curve, poor fit]
35 | O=C(N/N=C/c1ccc(N2CCOCC2)c([N+](=O)[O-])c1)c1ccc(F)cc1 | inactive
36 | Cc1ccc(S(=O)(=O)CCC(=O)Nc2ccccc2Cl)cc1 | inconclusive: 14.1 µM [inhibitor, single point]
37 | Oc1ccc(/C=N/NC(=S)Nc2cccnc2)c(O)c1O | inconclusive: 5.01 µM [inhibitor, full curve, poor fit]
38 | COc1ccc(/C=N/NC(=O)c2cc(-c3ccccc3)nc3ccccc23)c(OC)c1 | inconclusive: 35.5 µM [fluorescent, side channel, partial curve]
39 | O=S(=O)(Nc1ccc(-c2cnco2)cc1)c1ccccc1 | inconclusive: 112 µM [inhibitor, partial curve, poor fit]
40 | Nc1ccccc1C(=O)NNc1c2ccccc2nc2ccccc12 | inconclusive: 31.6 µM [quencher, side channel, partial curve]
41 | Cc1ccc(-n2c(C)cc(C3N=C(N)Nc4nc5ccccc5n43)c2C)c(C)c1 (configuration not stated) | inconclusive: 28.2 µM [quencher, side channel, partial curve]
42 | Cc1oc2c(c(C)cc3oc(=O)c(CC(=O)NCC(=O)NCC(=O)NCC(C)O)c(C)c32)c1C (configuration not stated) | inconclusive: 28.2 µM [quencher, side channel, single point]

An excerpt of these results, as tab-separated lines.
Row	Structure (SMILES)	Potency
35	O=C(N/N=C/c1ccc(N2CCOCC2)c([N+](=O)[O-])c1)c1ccc(F)cc1	inactive
36	Cc1ccc(S(=O)(=O)CCC(=O)Nc2ccccc2Cl)cc1	inconclusive: 14.1 µM [inhibitor, single point]
37	Oc1ccc(/C=N/NC(=S)Nc2cccnc2)c(O)c1O	inconclusive: 5.01 µM [inhibitor, full curve, poor fit]
